Measurements published in publication PMC5345165, “Cardiotoxicity evaluation using human embryonic stem cells and induced pluripotent stem cell-derived cardiomyocytes” (Stem Cell Research & Therapy, 2017).

Experiments:
hiPSC-CMs = assay: xCELLigence RTCA Cardio impedance assay on hiPSC-CMs
Experimental: (§1) Human ESC-CMs were kindly provided by the Institute of Biophysics of the Chinese Academy of Sciences, Beijing, China. Human iPSC-CMs, provided by a domestic manufacturer (Cellapy: CA2001106, Beijing, China), were also examined. Cells were incubated in maintaining medium at 37 °C, 5% CO2, with culture medium refreshed every 2 days. Cells were dissociated and replated into 96-well E-plates (ACEA Biosciences, Hangzhou, China), which was pre-coated with 0.1% gelatin. Cells were plated at a density of 50,000 cells per well.
(§2) Spontaneous cardiomyocytes contraction and cell health were monitored in real-time by impedance using xCELLigence real-time cellular analyzer (RTCA) Cardio system (ACEA Biosciences, Hangzhou, China). Impedance signals were monitored and recorded with 20 s recording per sweep.
(§3) Drug dilutions were equilibrated in a 37 °C, 5% CO2 incubator for 30 min before being applied to E-plates.
(§4) For data analysis, cellular impedance index, beat rate, and amplitude were measured off-line using RTCA Cardio software 1.0 and normalized for each well to the baseline (pre-dose) values measured prior to the compounds treatment. Statistics were performed using SPSS 21.0 (IBM Corp., Armonk, NY, USA). Data were presented as mean ± SEM. Statistical significance of differences was estimated by one-way ANOVA or Student’s t test. p < 0.05 was considered significant.

hESC-CMs = assay: xCELLigence RTCA Cardio impedance assay on hESC-CMs
Experimental: as §1, §2, §3, §4

Structure (SMILES): Cc1cccc(CCN2CCC(C(=O)c3ccc(NS(C)(=O)=O)cc3)CC2)n1 [E-4031]
- effect on CI (hiPSC-CMs; 100 and 300 nmol/L): substantially reduced
- CI (concentration at which cell index is decreased, ↓) (hiPSC-CMs; arrow ↓ = CI decreased): 0.1↓ μmol•L^-1
- effect on CI (hESC-CMs): increased
- CI (concentration at which cell index is increased, ↑) (hESC-CMs; arrow ↑ = CI increased): 0.01↑ μmol•L^-1
